Assay results taken from PubChem BioAssay AID1508600 (Functional Genomics Laboratory (NCATS/FGL), 2020).
Hit rate of the full screen: of about 53,000 sequences, about 3,700 (7%) were called active.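 How the source made its calls: active means gene knockdowns whose robust z-score for IL-1 alpha signal is at least 2 or at most -2, so actives lie on both sides; inactive means the rest.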 The list shows a part of the results.

Assay: Components of the Cytosolic LPS Sensing Pathway: Gene Identification via Genome-wide siRNA Screen;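 further: robust z of the log signal after scaling to non-targeting control siRNA wells of the plate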
Conditions: RAW264.7 macrophages, IL-1a HTRF, actives lie on both sides, screened at 100 nM (by protocol), cells primed 5 h with Pam3CSK4 first
Method in brief: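 RAW264.7; siRNA 100 nM final, RNAiMAX, 48h 37 degrees C; Pam3CSK4 5 h; LipidA + TransIT-TKO 24 h; IL-1a HTRF; CellTiter-Glo viability; robust z vs negative-control median.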

| Sequence | z-score |
| --- | --- |
| GGUGUAACUCCUUCAUUGATT against Ripor2 | active: -3.12 |
| GGCAAUGGUUCAGAGGACUTT against Abhd11 | inactive: -1.23 |
| CCUGCUAUGUAAUAUAGAUTT against Eef2k | inactive: 0.0542 |
| GGACGAGAACAUCUUAAUCTT against Pim1 | inactive: 1.58 |
| GGCAGGCAGACGAAUGUUCTT against Tbx1 | inactive: -1.09 |
| GGUCCUUAAGUCCUUUGACTT against Cdr1os | inactive: 0.894 |
| GCGAACCAAAAUUGAGUUUTT against Sap30bp | inactive: -0.0609 |
| GGUAUUACCACGACAGGUATT against Usp42 | inactive: -0.0157 |
| CCGCUAAACUUCCAUAACCTT against Rnf123 | inactive: 1.06 |
| GGGUAGGAUUCCAGAACAUTT against Arid2 | inactive: 0.787 |
| GCUAUUGCCAACCAAGUCUTT against A730045E13Rik | inactive: -1.87 |
| GGACUUGAGAGCAUUUGUGTT against Procr | inactive: -0.314 |
| GGCUCAGAUUCUCAACAGATT against Emx2 | inactive: -1.67 |
| CCCGUAUCUUUUUAGCUAATT against A630038E17Rik | inactive: 0.35 |
| GGUUUAUUGACAAGAAGGATT against Atg14 | inactive: 0.331 |
| GGAAAACUUCCAUAAAGAGTT against Bin1 | inactive: -0.42 |
| GGCUUAUAAAAUUCGGUCATT against Olig1 | inactive: 0.962 |
| GGAAGAGUCAAUUUUGAUGTT against Gfpt1 | inactive: 0.49 |
| GCCGAUUACUAUCCCGAGATT against Rasgef1c | inactive: -0.507 |
| CGUUAUAAUGCAUACUGUUTT against Fbn1 | inactive: -0.931 |
| GGAUUCAUCACUGACUACATT against Ddc | inactive: -0.654 |
| GCAAGUCACGAAAGAAGAGTT against Ttll4 | inactive: 0.62 |
| GCGUGAAGACAACAAGCAGTT against Myo1c | inactive: -0.0758 |

For convenience, some entries already given:

| Sequence | z-score |
| --- | --- |
| GGUCCUUAAGUCCUUUGACTT against Cdr1os | inactive: 0.894 |
| GCGAACCAAAAUUGAGUUUTT against Sap30bp | inactive: -0.0609 |
| GGUAUUACCACGACAGGUATT against Usp42 | inactive: -0.0157 |

Remaining list, next part:

| Sequence | z-score |
| --- | --- |
| GGACUCAUGAAAUCAUACCTT against Spry1 | inactive: 0.0325 |
| GGUUCCAUGUGACAGUAGCTT against Dok7 | inactive: -0.0194 |
| GGCACAACAACUUGAAUGGTT against Man2c1 | inactive: -1.28 |
| GGUGAUGAAAGGGAAUGGCTT against Rnf25 | active: -2.53 |
| GGAGCAUUUAAGGUUUACUTT against Marchf5 | inactive: 0.942 |
| GGAUUUGUUACGGUAGUUUTT against Slc30a9 | inactive: -0.0677 |
| GGGAACUACAAGCAUCCAGTT against Adm | inactive: 1.32 |
| GGUUUUCCCAUGAAGCAAGTT against Rps6 | inactive: -1.37 |
| GGGAGGAGUAAUAAUCCCGTT against B3gnt2 | inactive: -0.147 |
| GGCUUAAGCAGACGUGUCATT against Lhx8 | active: -2.14 |
| GGCCUAUGUACCCUACCAATT against Enpp1 | inactive: -1.35 |
| GGCACAAAGCAAGAUUACCTT against Cebpz | inactive: 0.422 |
| GGGAAGUUGUCAAUACCUGTT against Sra1 | inactive: 0.0642 |
| GCCUCAACCUGAUUAUCACTT against Enpp7 | inactive: -0.0927 |
| GGAGGUUGUGAUCUUGAAATT against Tbc1d23 | inactive: -0.000244 |
| GGUGUUAAGACUCAGCUCATT against Micall2 | inactive: -1.49 |
| GGACACAGGGUCUCUUACATT against Msrb2 | inactive: -1.25 |
| GGAGACAUCAAGAGUUCUGTT against H2-M10.1 | inactive: -0.121 |
| GGACAAUGCCCUGUAUCAGTT against Clic3 | inactive: -0.822 |
| GCAAUUGGUAAAGAUGAAATT against Sly | inactive: -0.277 |
| GGUCAAGCUCUUCUGCCUCTT against Trim62 | inactive: 0.764 |
| GGUUAUUGUUGAGAAUCCUTT against Gpkow | inactive: 0.252 |
| CGCAGAGAAGGACUAUCUUTT against Ush1c | inactive: -1.58 |

| Sequence | z-score |
| --- | --- |
| GGACUCACGUCAAGAUGUUTT against Ckap2l | inactive: -0.961 |
| GCAUGUGAUUACCUUUGUATT against Btbd10 | inactive: 0.633 |
| AACAGCAUCUUUGUGGUCCTT against Ins1 | inactive: -0.483 |
| GCCCAGAAUGCUCACUAAATT against Sln | inactive: 0.491 |
| GGGAAAAUGCCAAGUGGAATT against Med8 | inactive: -1.75 |
| GGCAGAUGUACUGAUUAAATT against Tmprss11g | inactive: 1.05 |
| GGAGCAGAAGUCAAUCAGGTT against Myo1b | inactive: 0.419 |
| CGGCAAACUCAAGAAGCAGTT against Ccdc102a | inactive: -1.6 |
| GGAGGCUUAGGAUAAUUUATT against Proser1 | inactive: 0.83 |
| GGCAUUAUGAGCAUCUCGGTT against Tnfrsf11a | inactive: -0.394 |
| GGGUCCUGCUCAACAUCAUTT against Strip1 | inactive: -1.79 |
| CCAGAUCCUAAAGUCUUUATT against Trpd52l3 | inactive: 0.677 |
| GGAGCUGAGUCCUGAUGGATT against Apod | inactive: 1.29 |
| CCCUUCUAAAAGCUAUAAGTT against Osbpl10 | inactive: -0.0668 |
| GGAAUGGUGAUGGAGUGGATT against Ptges3l | inactive: 1.19 |
| GCACAGCUAACGGAAAACATT against Pfdn6 | inactive: 0.405 |
| GGAAAAAUGAGCAGAAACUTT against 2700097O09Rik | inactive: -0.834 |
| GGUUACAGAAGAAUUAGAATT against Ift57 | inactive: 9.9e-05 |
| GCGGAGAAUAUCUUGCUUATT against Mab21l4 | inactive: -0.428 |
| CGAUUUCAUAUUAACCAGCTT against Atad1 | inactive: -0.282 |
| GGUCUGGGAUACUAGAGCCTT against Prap1 | inactive: 0.902 |
| CCGAACCUUCAGCUACACATT against Keap1 | inactive: 0.0133 |

Random excerpt: 2 records from the list

| Sequence | z-score |
| --- | --- |
| CCAGAUCCUAAAGUCUUUATT against Trpd52l3 | inactive: 0.677 |
| GGUUACAGAAGAAUUAGAATT against Ift57 | inactive: 9.9e-05 |
